The source of these data is US20140107219A1, “LOCAL ANAESTHETIC” (VITA (EUROPE) LIMITED, priority 2011, published 2014).

The conditions of data set [1]: in vivo; cited from earlier work.
In data set [2] the test system is isolated sciatic nerve of the rat. Put plainly: Evoked compound action potential (CAP) of the isolated rat sciatic nerve in a three-chamber bath (ex vivo): inhibition and recovery after washout. The following applies: within the limits of 24 h.

As to `CCN(CC)CC(=O)Nc1c(C)cccc1C` [lidocaine, 2-(diethylamino)-N-(2,6-dimethylphenyl)-acetamide, reference compound], in data set [1], the “acute LD50” value is given as 313 mg/kg. The “neurotoxic effect on nerve fibres” value in data set [2] is “no neurotoxic effect”.
